This test deals with talin head domain (THD, a. a. 1-433), HIS-tagged (UniProt P26039). Kind of test: ELISA; solid phase binding assay: talin head domain (3 µg/ml) coated on Nunc maxisorp 96 well plates; DDR1 cytoplasmic constructs added at increasing concentrations in 50 mM Tris pH 7.5, 150 mM NaCl, 0.1% BSA, 2 mM DTT, 0.1% Tween 20, overnight at 4°C; bound DDR1 detected with anti-DDR1 antibody; one site saturation fit; both purified. For orientation: In an ELISA, binding on a coated surface is turned into a signal by an enzyme label.

By UniProt entry, the sequences of proteins in these tests, tags left out. Residues count along the entry.
UniProt P26039, residues 1-433: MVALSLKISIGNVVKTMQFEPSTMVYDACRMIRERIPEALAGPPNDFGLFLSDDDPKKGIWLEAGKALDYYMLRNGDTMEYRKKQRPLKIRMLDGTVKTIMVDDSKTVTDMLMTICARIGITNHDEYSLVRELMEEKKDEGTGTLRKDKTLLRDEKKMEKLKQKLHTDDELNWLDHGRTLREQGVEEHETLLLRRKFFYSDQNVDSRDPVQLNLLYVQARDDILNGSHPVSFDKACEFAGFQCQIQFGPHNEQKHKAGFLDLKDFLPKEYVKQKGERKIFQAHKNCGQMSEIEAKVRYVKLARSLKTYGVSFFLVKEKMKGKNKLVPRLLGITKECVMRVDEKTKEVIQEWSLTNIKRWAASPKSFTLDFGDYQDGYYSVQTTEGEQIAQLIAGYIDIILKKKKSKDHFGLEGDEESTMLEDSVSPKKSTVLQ

The values below come from paper PMC8928223, “The Collagen Receptor Discoidin Domain Receptor 1b Enhances Integrin β1-Mediated Cell Migration by Interacting With Talin and Promoting Rac1 Activation” (Frontiers in Cell and Developmental Biology, 2022).

No constants are given. Whether binding was seen depends on the method and setting. Some results given as binding are weak or reduced against the parent protein; the word gives no strength.

B1: DDR1b cytoplasmic domain (domain or fragment)
chain: WRLHWRRLLSKAERRVLEEELTVHLSVPGDTILINNRPGPREPPPYQEPRPRGNPPHSAPCVPNGSALLLSNPAYRLLLATYARPPRGPGPPTPAWAKPTNTQAYSGDYMEPEKPGAPLLPPPPQNSVPHYAEADIVTLQGVTGGNTYAVPALPPGAVGDGPPRVDFPRSRLRFKEKLGEGQFGEVHLCEVDSPQDLVSLDFPLNVRKGHPLLVAVKILRPDATKNARNDFLKEVKIMSRLKDPNIIRLLGVCVQDDPLCMITDYMENGDLNQFLSAHQLEDKAAEGAPGDGQAAQGPTISYPMLLHVAAQIASGMRYLATLNFVHRDLATRNCLVGENFTIKIADFGMSRNLYAGDYYRVQGRAVLPIRWMAWECILMGKFTTASDVWAFGVTLWEVLMLCRAQPFGQLTDEQVIENAGEFFRDQGRQVYLSRPPACPQGLYELMLRCWSRESEQRPPFSQLHRFLAEDALNTV
For the molecule B1, the binding entry is given as “binds”.
